Test results published in PMC5823973.
These are yes or no findings as the source states them, for the method shown. In cells and extracts the contact can be indirect. Some results given as binding are weak or reduced against the parent protein; the word gives no strength.

Amino acid sequences for entries named in this document (tags omitted).
UniProt P04406: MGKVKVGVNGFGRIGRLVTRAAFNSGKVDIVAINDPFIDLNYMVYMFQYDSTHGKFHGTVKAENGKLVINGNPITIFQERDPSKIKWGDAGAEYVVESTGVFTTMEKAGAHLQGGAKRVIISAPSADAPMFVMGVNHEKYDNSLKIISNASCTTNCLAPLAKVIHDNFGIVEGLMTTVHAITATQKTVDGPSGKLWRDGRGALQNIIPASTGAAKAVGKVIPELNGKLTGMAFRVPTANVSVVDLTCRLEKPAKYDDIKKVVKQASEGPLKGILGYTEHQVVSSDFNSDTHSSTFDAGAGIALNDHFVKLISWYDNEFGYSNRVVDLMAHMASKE

Target: GAPDH (human (endogenous in 143B cybrid cells)) (UniProt P04406)
Assay: co-IP; anti-GAPDH antibody coupled to Dynabeads M-270 Epoxy, incubated with 3 mg lysate of mT7, mT45 or mT80 cells for 30 minutes at 4°C; lysis buffer 140 mM NaCl, 5 mM EDTA, 1% Triton X-100, 20 mM Tris pH 7.4; three washes; western blot; IgG isotype control

B1: malate dehydrogenase 1 (MDH1) (enzyme, UniProt P40925 1-334)
chain: MSEPIRVLVTGAAGQIAYSLLYSIGNGSVFGKDQPIILVLLDITPMMGVLDGVLMELQDCALPLLKDVIATDKEDVAFKDLDVAILVGSMPRREGMERKDLLKANVKIFKSQGAALDKYAKKSVKVIVVGNPANTNCLTASKSAPSIPKENFSCLTRLDHNRAKAQIALKLGVTANDVKNVIIWGNHSSTQYPDVNHAKVKLQGKEVGVYEALKDDSWLKGEFVTTVQQRGAAVIKARKLSSAMSAAKAICDHVRDIWFGTPEGEFVSMGVISDGNSYGVPDDLLYSFPVVIKNKTWKFVEGLPINDFSREKMDLTAKELTEEKESAFEFLSSA
  binding: binds
